Test results published in article PMC6857076 (Pharmacology Research & Perspectives, 2019).
Where two headings read alike, the source gives them in different places.

Assays:
[1] = system: IL-10 cytokine receptor (JAK1/TYK2); assay: Human whole blood, IL-10-induced pSTAT3, lymphocytes; assay type: cell-based; details: Lymphocyte, read-out: IC50,u, IL-10, pSTAT3
IFNα cytokine receptor = assay: cells; details: Homo sapiens, Lymphocyte, pSTAT3, lymphocytes

C[C@@H]1CCN(C(=O)CC#N)C[C@@H]1N(C)c1ncnc2[nH]ccc12 [Tofacitinib]
IC50 [1]: 64 nM
IC50 (IFNα cytokine receptor; read-out: human whole blood IFNα IC50, Average, IFNα 5000 U/ml (EC95)): 64 nM
IC50 (IFNα cytokine receptor; read-out: human whole blood IFNα IC50, Donor A, IFNα 5000 U/ml (EC95)): 62 nM
IC50 (IFNα cytokine receptor; read-out: human whole blood IFNα IC50, Donor B, IFNα 5000 U/ml (EC95)): 66 nM
